{
  "source": "paper PMC7819943",
  "about": "“Rice protein-binding microarrays: a tool to detect cis-acting elements near promoter regions in rice”",
  "note": "This is one part of the list.",
  "data": [
    {"molecular_target": "T1, OsSMF1 (Oryza sativa, UniProt Q6ZLB0 1-436)", "T1 sequence": "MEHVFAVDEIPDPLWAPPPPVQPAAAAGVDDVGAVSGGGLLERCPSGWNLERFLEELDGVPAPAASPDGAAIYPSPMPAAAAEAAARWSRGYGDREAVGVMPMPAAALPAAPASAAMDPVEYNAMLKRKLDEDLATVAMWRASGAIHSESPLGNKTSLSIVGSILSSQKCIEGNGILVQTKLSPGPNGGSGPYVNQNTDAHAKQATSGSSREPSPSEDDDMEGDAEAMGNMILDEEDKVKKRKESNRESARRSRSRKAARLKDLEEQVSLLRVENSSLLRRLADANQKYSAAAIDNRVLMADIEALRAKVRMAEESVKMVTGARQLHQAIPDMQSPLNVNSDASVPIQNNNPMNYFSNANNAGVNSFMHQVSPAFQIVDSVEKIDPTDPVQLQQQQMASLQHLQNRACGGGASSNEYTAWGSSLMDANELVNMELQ", "test": "protein-binding microarray (RPBM); PBS, 2% BSA, 51.3 ng/ul salmon testes DNA, 50 uM zinc acetate, 200 nM TF, 25 C, 1 h; high values mean tight binding", "settings": "protein: recombinant; tags: N-terminal polyhistidine and DsRed monomer fusion (pET32a); chain copies: 2; label: CyDye5-dUTP incorporated in the synthesized complementary strand; 3' TTTTT single-stranded linker to array surface; dsDNA, one strand shown", "how_it_was_run": "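Binding signal is defined as the fluorescence intensity of each feature in arbitrary units, read on an Axon 4000B scanner. Transcription factors with N-terminal polyhistidine and DsRed fusions came from E. coli BL21-CodonPlus and were purified on Ni–NTA. They were incubated at 200 nM for 1 h at 25 °C on a custom Agilent array that had been made double-stranded with Cy5-dUTP, with 50 µM zinc acetate present, and the array was washed.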", "values": [
      {"sequence": "TCCAGCTACTGTTGCAACTGTTCTTCTCACAGTCACAGGCCGGAGTCACCTAGTGCAG", "binding signal": "3760 fluorescence intensity (a.u.)"},
      {"sequence": "ACTTGCTGACCCCTCGTCCTCGTCATCGTCCGCCCTATGTCGGAGTCACCTAGTGCAG", "binding signal": "16200 fluorescence intensity (a.u.)"},
      {"sequence": "CGCGCCACCGGCTCACGCTGCAGGACTTCGCCGCGGTGTACGGAGTCACCTAGTGCAG", "binding signal": "3180 fluorescence intensity (a.u.)"},
      {"sequence": "CGGGAAGGCCAGTCCTCCGTCAGCATCCTCTCTTCCGTTGCGGAGTCACCTAGTGCAG", "binding signal": "7730 fluorescence intensity (a.u.)"},
      {"sequence": "TCTCCGCCAACCATCCCGCCACGTCAACCACCTTTCCATCCGGAGTCACCTAGTGCAG", "binding signal": "32900 fluorescence intensity (a.u.)"},
      {"sequence": "GATGAAGGTGATCGGGTCCACATCATAGGTTCAAAACTTGCGGAGTCACCTAGTGCAG", "binding signal": "4930 fluorescence intensity (a.u.)"},
      {"sequence": "TTTATTTATTACAAACCCAAAATAACTTGTAACGTGGAACCGGAGTCACCTAGTGCAG", "binding signal": "3500 fluorescence intensity (a.u.)"},
      {"sequence": "GATGCACGGTATGTCATCCGGTGACTTGCCATAGCAATGTCGGAGTCACCTAGTGCAG", "binding signal": "4800 fluorescence intensity (a.u.)"},
      {"sequence": "TGTAATGTTATATCTTCTCTGGCACGTCGGAAAATCCTTGCGGAGTCACCTAGTGCAG", "binding signal": "4890 fluorescence intensity (a.u.)"},
      {"sequence": "CGTGTGTGTTTCTTGGGGCTGAGCTGTTTGCTCTCCTGGTCGGAGTCACCTAGTGCAG", "binding signal": "3230 fluorescence intensity (a.u.)"},
      {"sequence": "TCTCTTCTTTTATTTCCTTGACGTGTGTTATAGCTCTTCTCGGAGTCACCTAGTGCAG", "binding signal": "3650 fluorescence intensity (a.u.)"},
      {"sequence": "GGATGCTCCTTCTGTGTGTCTTCTGCTGGTCTTGGTGATCCGGAGTCACCTAGTGCAG", "binding signal": "9610 fluorescence intensity (a.u.)"},
      {"sequence": "GCCGCGCTGTGTGTCGCGCCACGCCCGCGTGGGCCCGCCGCGGAGTCACCTAGTGCAG", "binding signal": "5130 fluorescence intensity (a.u.)"},
      {"sequence": "CATGGTCGCCAACACCCTCCACGCCTGCGCCGTCCTCCTCCGGAGTCACCTAGTGCAG", "binding signal": "3520 fluorescence intensity (a.u.)"},
      {"sequence": "GATGAACTTTGCCACCTTCTCTAGGTATGACATATGTACGCGGAGTCACCTAGTGCAG", "binding signal": "3610 fluorescence intensity (a.u.)"},
      {"sequence": "TTGATATGACCAGTGCTGATGTAGAGTCAGACATGACCTCCGGAGTCACCTAGTGCAG", "binding signal": "4320 fluorescence intensity (a.u.)"},
      {"sequence": "GAGCAGCTTGCCGATGCGCACCTCGTTCCACGGGTCCCTGCGGAGTCACCTAGTGCAG", "binding signal": "3340 fluorescence intensity (a.u.)"},
      {"sequence": "ATACGAATCACATTGAGTCATAGTTGAGAGAATCGAAATGCGGAGTCACCTAGTGCAG", "binding signal": "3270 fluorescence intensity (a.u.)"},
      {"sequence": "GGTTTCGCTGCTTGGTCATCACTGCTCCGTCGTCGGCTTGCGGAGTCACCTAGTGCAG", "binding signal": "7260 fluorescence intensity (a.u.)"},
      {"sequence": "CGGGCTCCGATCGATCTCCATGATTAACCATCCGGCGTGGCGGAGTCACCTAGTGCAG", "binding signal": "3540 fluorescence intensity (a.u.)"},
      {"sequence": "CGCACGACAACTCTAGGTCAGCCACGAATCGTTTCACCTCCGGAGTCACCTAGTGCAG", "binding signal": "3930 fluorescence intensity (a.u.)"},
      {"sequence": "TTGATTTCCAACAATTTTGTAAGTAGTCACTGATCACCCACGGAGTCACCTAGTGCAG", "binding signal": "3880 fluorescence intensity (a.u.)"},
      {"sequence": "GCCGTATATAACGACCGCCTCCTCACCCCGGCCTCTCGCCCGGAGTCACCTAGTGCAG", "binding signal": "3320 fluorescence intensity (a.u.)"},
      {"sequence": "GAATACTGGTTTGACTTACTCTTGTTTCGTCGTCACGCGCCGGAGTCACCTAGTGCAG", "binding signal": "3950 fluorescence intensity (a.u.)"},
      {"sequence": "CCTGGAGGAAAGAAAGAAAGAAAGATGATAAGGCGGCTGGCGGAGTCACCTAGTGCAG", "binding signal": "20700 fluorescence intensity (a.u.)"},
      {"sequence": "AGCGGAGGGGTCGGGAGGCAGTGCGGTGGCTGGTCAGCGACGGAGTCACCTAGTGCAG", "binding signal": "3470 fluorescence intensity (a.u.)"},
      {"sequence": "GTGTCTCTTCTATACGTGGCGAGCTTAGGTAGCTAGTGTACGGAGTCACCTAGTGCAG", "binding signal": "6150 fluorescence intensity (a.u.)"},
      {"sequence": "AACTAGGTCTGTCAGCCAACAATCACAGGAATCATTGCTACGGAGTCACCTAGTGCAG", "binding signal": "3550 fluorescence intensity (a.u.)"},
      {"sequence": "GACTTGATTACCACGCGTATACTATATAGGACAAAATTGCCGGAGTCACCTAGTGCAG", "binding signal": "3190 fluorescence intensity (a.u.)"},
      {"sequence": "TATGATTCGTGTCGGGACACGTCTCCACGTCAAGAGCGGGCGGAGTCACCTAGTGCAG", "binding signal": "9730 fluorescence intensity (a.u.)"},
      {"sequence": "ACGTTTCGCCCCGCATGCCCTCTATATAGAGCGGTTGAGCCGGAGTCACCTAGTGCAG", "binding signal": "14400 fluorescence intensity (a.u.)"},
      {"sequence": "TTGCTTGCCACGTGCAAGATCATAGCAGATGGAGACAAAACGGAGTCACCTAGTGCAG", "binding signal": "3920 fluorescence intensity (a.u.)"},
      {"sequence": "CCTCGCCACCGGCGAGTCCGCCACGTCGAGGAGGTTCGCCCGGAGTCACCTAGTGCAG", "binding signal": "7300 fluorescence intensity (a.u.)"},
      {"sequence": "GCCCTCCTTCTGACCGTCCCCTCCGCCACGCTCTTCTTCCCGGAGTCACCTAGTGCAG", "binding signal": "3600 fluorescence intensity (a.u.)"},
      {"sequence": "AACATATAAGAACATTACTGGGTCTTTGAAGTCCTTGTGTCGGAGTCACCTAGTGCAG", "binding signal": "3350 fluorescence intensity (a.u.)"},
      {"sequence": "GTTGACAAGGGATTGAGTGAGTGCGTTGTAACGGTGGGCACGGAGTCACCTAGTGCAG", "binding signal": "3290 fluorescence intensity (a.u.)"},
      {"sequence": "CGCTTGCGGCTGCAGGCTGCTGAGCTCGTCCGTCAAGCGCCGGAGTCACCTAGTGCAG", "binding signal": "17400 fluorescence intensity (a.u.)"},
      {"sequence": "CGAATCGAACGATTTATTAGGCGTTTTATTATGTCACAGACGGAGTCACCTAGTGCAG", "binding signal": "21800 fluorescence intensity (a.u.)"},
      {"sequence": "TAACTGAAGGCGGCGCTCAGTCCCGCGCCTTCTGGAACCTCGGAGTCACCTAGTGCAG", "binding signal": "33000 fluorescence intensity (a.u.)"},
      {"sequence": "TTAGACCCATTCGGGCTGGATGACGTCAATAAGGCGGGGCCGGAGTCACCTAGTGCAG", "binding signal": "11200 fluorescence intensity (a.u.)"},
      {"sequence": "CCCTCGCCGCCACGGCGAACCCCTCGCCGCCGCCACCGCCCGGAGTCACCTAGTGCAG", "binding signal": "3570 fluorescence intensity (a.u.)"},
      {"sequence": "CCTAGACTCTACCACCATACCACTATCATCACTTCTTCCGCGGAGTCACCTAGTGCAG", "binding signal": "3150 fluorescence intensity (a.u.)"}
    ]}
  ]
}
